Reference: patent publication US20200063108A1, “THREE-DIMENSIONAL TISSUE STRUCTURES” (Dana-Farber Cancer Institute, Inc., priority 2017, published 2020)
For at least one compound, name, drawing or mass did not settle the structure.

Tests used:
breast cancer PDX = assay: Longitudinal drug response of breast cancer PDX; design: species or system mice; conditions: in vivo PDX
[1] = system: breast cancer patient-derived 3D Organoids; assay: Longitudinal drug response of breast cancer patient-derived 3D organoid culture; type: cell-based; conditions: 3D conditions with Wnt-stimulator R-spondin, in vitro
[2] = system: drug-refractory prostate cancer 3-D organoids; assay: Re-exposure of drug-refractory prostate cancer 3-D organoids to afatinib and vinblastine; type: cell-based; conditions: re-exposed to afatinib and vinblastine (100 nM) 5 days after first exposure drug-washout

CN(C)C/C=C/C(=O)Nc1cc2c(Nc3ccc(F)c(Cl)c3)ncnc2cc1O[C@H]1CCOC1 [Afatinib]
tumor response curve in PDX (breast cancer PDX): cell viability curve plateauing | cell viability curve [1]: cell viability curve plateauing | cross-resistance of organoids refractory to the named drug [2]: lack thereof
